Results taken from the supplement of paper PMC6411743.
± gives the standard deviation of the averaged measurements. Some of the results follow.

Amino acid sequences for entries named in this document (tags omitted). A change or cut given only in a name is not applied to a line headed by its entry.
UniProt Q9H7C9: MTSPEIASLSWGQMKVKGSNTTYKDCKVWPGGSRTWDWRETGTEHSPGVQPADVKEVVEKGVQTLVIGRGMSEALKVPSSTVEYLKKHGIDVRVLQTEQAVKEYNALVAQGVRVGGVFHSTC
UniProt Q9Y5J7: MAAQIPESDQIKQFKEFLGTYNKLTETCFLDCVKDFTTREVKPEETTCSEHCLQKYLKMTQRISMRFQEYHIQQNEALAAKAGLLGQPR
UniProt P08962, whole entry: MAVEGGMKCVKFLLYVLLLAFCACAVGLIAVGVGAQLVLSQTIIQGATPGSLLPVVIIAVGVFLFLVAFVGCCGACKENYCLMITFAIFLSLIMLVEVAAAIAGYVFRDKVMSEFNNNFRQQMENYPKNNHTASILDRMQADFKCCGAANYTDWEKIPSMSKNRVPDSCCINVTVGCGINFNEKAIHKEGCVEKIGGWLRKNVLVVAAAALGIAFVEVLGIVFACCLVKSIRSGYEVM
UniProt Q8N3I7: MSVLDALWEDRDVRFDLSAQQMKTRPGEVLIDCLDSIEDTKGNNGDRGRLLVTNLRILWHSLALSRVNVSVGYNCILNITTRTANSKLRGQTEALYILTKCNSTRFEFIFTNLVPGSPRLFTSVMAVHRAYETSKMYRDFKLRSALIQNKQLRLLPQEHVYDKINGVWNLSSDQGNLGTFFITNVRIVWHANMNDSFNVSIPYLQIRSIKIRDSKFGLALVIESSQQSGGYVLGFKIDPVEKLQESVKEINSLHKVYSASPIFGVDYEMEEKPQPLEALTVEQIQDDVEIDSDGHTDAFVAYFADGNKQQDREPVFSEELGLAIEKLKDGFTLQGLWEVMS
UniProt Q9NS91, whole entry: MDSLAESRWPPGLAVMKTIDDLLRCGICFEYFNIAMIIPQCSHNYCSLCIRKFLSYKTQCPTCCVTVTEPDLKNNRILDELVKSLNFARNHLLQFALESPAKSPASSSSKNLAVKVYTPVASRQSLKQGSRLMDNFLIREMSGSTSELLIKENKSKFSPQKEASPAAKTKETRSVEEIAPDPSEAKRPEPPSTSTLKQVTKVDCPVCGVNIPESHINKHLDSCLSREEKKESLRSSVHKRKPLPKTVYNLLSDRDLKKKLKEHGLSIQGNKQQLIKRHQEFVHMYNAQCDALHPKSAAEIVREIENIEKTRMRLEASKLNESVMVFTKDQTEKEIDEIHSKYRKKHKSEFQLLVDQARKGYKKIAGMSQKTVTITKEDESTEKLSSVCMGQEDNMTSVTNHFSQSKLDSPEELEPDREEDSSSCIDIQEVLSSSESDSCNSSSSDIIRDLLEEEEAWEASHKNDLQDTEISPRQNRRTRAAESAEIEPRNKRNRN
UniProt Q7Z589: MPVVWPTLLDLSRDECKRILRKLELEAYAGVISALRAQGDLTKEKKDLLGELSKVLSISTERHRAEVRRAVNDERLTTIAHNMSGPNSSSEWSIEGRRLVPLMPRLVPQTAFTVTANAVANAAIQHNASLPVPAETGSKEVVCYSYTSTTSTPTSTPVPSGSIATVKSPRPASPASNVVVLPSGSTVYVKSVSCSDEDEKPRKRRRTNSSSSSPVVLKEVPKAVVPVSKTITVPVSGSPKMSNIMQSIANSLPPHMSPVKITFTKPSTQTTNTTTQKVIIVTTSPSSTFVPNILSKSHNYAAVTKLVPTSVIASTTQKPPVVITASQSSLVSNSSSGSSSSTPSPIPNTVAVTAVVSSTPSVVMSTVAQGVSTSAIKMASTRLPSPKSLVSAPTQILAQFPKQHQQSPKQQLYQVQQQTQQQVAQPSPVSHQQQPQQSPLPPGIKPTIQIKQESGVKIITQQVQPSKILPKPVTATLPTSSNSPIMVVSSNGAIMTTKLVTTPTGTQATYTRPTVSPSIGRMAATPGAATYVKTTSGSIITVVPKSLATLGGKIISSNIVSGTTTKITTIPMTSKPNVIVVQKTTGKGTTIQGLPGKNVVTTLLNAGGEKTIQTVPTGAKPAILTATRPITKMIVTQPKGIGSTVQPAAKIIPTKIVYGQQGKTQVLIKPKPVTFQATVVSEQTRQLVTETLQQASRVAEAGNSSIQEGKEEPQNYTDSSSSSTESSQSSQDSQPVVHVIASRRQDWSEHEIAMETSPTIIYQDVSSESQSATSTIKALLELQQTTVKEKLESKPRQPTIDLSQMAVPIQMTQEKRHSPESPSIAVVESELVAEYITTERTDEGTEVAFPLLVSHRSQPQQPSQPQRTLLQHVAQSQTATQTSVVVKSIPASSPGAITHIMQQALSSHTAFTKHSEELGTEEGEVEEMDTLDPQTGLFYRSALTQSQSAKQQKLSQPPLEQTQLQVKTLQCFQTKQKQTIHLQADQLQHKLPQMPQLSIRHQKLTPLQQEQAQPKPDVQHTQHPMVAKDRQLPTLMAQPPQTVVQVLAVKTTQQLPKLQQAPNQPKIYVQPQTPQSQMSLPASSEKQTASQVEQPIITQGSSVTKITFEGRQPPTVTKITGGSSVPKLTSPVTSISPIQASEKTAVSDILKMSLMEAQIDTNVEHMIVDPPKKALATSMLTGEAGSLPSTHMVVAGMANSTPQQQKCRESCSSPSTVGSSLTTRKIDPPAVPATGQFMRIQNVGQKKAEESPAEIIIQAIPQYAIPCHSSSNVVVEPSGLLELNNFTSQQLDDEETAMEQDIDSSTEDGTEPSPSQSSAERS
UniProt P49023, whole entry: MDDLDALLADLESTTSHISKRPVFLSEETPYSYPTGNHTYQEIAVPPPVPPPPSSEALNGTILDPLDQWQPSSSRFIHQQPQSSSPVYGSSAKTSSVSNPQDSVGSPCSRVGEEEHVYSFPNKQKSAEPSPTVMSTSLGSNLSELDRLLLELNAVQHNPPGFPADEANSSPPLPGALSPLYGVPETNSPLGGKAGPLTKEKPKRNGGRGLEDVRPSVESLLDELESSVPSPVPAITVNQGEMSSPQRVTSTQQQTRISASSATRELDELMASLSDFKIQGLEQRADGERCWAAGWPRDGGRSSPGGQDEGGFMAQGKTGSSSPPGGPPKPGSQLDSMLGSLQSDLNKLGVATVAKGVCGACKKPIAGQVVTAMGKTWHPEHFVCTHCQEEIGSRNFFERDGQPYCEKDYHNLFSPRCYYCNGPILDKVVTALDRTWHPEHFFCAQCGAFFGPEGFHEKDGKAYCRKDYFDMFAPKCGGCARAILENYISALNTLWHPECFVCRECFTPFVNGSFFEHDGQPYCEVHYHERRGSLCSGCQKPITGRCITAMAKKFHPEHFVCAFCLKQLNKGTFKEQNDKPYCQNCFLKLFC
UniProt O00750: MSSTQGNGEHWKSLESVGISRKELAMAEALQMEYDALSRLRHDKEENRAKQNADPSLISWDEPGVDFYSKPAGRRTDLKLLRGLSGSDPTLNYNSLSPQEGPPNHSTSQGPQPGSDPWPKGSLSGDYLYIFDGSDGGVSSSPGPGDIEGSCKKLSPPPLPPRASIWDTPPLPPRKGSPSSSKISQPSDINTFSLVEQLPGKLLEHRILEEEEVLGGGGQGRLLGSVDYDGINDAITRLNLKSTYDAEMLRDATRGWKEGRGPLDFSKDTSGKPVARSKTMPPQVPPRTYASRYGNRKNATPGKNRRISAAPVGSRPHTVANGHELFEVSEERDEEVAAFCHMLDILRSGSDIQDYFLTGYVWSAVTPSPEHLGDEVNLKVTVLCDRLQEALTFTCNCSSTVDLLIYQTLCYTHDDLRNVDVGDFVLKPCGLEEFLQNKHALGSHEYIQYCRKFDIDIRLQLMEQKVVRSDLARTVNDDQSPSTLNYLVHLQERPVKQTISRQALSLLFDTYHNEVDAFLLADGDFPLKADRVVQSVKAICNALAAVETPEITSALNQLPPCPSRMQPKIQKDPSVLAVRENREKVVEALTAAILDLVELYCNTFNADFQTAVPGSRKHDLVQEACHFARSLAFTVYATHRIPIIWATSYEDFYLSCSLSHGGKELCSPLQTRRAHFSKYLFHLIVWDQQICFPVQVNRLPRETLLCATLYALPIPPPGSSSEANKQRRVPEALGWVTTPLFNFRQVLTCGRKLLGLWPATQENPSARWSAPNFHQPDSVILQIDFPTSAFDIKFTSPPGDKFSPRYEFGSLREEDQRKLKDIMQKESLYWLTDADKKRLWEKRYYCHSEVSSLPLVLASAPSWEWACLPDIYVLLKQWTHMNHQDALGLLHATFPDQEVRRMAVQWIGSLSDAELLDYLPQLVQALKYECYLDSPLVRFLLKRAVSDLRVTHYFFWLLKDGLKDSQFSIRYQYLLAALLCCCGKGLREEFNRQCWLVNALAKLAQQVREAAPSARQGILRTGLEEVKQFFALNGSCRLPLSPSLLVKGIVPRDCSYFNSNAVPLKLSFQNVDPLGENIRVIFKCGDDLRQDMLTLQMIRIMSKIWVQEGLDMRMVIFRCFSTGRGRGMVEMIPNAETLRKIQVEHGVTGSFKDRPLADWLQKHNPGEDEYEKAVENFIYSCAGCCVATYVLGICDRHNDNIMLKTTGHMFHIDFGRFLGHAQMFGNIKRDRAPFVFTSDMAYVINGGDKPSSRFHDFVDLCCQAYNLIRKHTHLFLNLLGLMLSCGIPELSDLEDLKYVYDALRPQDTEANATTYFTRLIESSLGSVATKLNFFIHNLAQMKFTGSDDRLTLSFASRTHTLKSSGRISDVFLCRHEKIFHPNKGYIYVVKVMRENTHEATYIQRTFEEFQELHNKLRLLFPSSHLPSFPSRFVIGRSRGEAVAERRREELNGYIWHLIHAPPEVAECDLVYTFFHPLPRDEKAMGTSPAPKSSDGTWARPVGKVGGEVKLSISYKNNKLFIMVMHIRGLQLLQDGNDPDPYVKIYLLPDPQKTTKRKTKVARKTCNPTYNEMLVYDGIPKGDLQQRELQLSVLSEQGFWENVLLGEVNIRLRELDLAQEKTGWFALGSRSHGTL
UniProt P11802: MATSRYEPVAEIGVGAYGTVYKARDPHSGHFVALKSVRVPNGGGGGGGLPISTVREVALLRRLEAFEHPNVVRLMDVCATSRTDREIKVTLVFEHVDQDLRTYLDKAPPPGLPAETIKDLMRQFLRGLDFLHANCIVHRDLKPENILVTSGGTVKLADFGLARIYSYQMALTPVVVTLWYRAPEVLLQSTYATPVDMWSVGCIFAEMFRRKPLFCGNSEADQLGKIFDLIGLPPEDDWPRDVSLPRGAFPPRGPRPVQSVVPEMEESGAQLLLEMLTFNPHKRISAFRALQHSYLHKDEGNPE
UniProt P10242: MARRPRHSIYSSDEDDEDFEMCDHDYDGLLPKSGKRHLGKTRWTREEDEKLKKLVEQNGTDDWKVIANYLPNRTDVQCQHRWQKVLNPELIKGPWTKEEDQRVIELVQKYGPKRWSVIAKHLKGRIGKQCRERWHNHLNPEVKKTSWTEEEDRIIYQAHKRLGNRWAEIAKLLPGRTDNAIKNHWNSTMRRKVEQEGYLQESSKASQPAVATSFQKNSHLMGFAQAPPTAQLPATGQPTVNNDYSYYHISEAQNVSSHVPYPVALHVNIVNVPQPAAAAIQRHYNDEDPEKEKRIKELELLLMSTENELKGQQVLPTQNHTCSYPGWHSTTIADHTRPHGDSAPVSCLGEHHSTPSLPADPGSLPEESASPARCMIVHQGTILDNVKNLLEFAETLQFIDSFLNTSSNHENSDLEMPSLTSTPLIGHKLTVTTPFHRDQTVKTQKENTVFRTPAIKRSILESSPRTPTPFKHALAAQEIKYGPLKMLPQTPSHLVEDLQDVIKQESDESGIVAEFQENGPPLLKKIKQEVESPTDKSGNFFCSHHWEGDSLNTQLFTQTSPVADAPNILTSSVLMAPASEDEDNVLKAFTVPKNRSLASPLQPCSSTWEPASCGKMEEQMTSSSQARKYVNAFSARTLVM
UniProt Q9Y3C0: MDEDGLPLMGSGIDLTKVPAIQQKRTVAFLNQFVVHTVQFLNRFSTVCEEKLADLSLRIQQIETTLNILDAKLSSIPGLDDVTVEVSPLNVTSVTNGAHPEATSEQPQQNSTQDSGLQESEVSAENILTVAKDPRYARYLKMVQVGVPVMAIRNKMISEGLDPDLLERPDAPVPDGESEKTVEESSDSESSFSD
UniProt P08195: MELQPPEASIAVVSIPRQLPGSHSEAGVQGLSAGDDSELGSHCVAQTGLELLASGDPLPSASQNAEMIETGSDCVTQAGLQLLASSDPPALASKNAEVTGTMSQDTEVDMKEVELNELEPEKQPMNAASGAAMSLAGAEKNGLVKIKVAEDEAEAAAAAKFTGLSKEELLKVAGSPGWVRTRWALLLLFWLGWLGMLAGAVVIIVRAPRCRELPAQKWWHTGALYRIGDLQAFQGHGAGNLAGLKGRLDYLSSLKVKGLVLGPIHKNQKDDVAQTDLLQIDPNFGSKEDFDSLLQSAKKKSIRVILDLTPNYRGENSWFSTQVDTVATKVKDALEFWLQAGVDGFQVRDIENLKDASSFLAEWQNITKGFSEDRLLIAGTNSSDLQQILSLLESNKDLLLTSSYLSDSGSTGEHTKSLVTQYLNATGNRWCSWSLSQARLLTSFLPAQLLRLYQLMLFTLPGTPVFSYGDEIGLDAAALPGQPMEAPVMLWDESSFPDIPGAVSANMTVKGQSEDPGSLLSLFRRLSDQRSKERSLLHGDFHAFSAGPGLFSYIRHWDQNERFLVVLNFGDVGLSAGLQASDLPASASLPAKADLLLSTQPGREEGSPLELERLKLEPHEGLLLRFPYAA

Compound: Nc1nc2c(ncn2[C@@H]2O[C@H](COP(=O)(O)OP(=O)(O)OP(=O)(O)O)[C@@H](O)[C@H]2O)c(=O)[nH]1 [guanosine triphosphate]
Experiment: NP40-soluble protein abundance relative to vehicle (solubility fold change) (ratio); higher = more soluble protein in presence of GTP
Outline: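 In three independent experiments, Jurkat crude lysate made by Dounce homogenisation was treated for 10 min at room temperature and then 3 min at 37 °C with eight concentrations ranging from 0.1 to 10 mM. It was then solubilised with 0.8% NP40 plus benzonase for 60 min at 4 °C and ultracentrifuged. The supernatant was TMT-labelled for LC-MS/MS, and each value is the fold change against the detergent-processed vehicle for the same replicate, using vsn-normalised intensities.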

Target | NP40-soluble protein abundance (concentration: 0.1mM) | NP40-soluble protein abundance (concentration: 0.5mM) | NP40-soluble protein abundance (concentration: 1mM) | NP40-soluble protein abundance (concentration: 2mM) | NP40-soluble protein abundance (concentration: 4mM) | NP40-soluble protein abundance (concentration: 6mM) | NP40-soluble protein abundance (concentration: 8mM) | NP40-soluble protein abundance (concentration: 10mM)
E9PF58 and related entries (UniProt Q92747) | 1.05 ± 0.08 | 1.1 ± 0.17 | 0.937 ± 0.084 | 0.991 ± 0.14 | 0.994 ± 0.13 | 0.964 ± 0.13 | 0.96 ± 0.042 | 0.903 ± 0.11
E7ETU7 and related entries (UniProt P09001) | 1.09 ± 0.086 | 1.25 ± 0.31 | 1.31 ± 0.49 | 1.39 ± 0.54 | 1.3 ± 0.44 | 1.33 ± 0.5 | 1.33 ± 0.53 | 1.2 ± 0.59
E9PNP3 and related entries (UniProt Q9H7C9) | 0.931 ± 0.12 | 0.861 ± 0.042 | 1 ± 0.14 | 0.939 ± 0.057 | 0.953 ± 0.1 | 0.953 ± 0.083 | 0.914 ± 0.12 | 0.956 ± 0.063
G3V502 and related entries (UniProt Q9Y5J7) | 1.047 ± 0.0099 | 1.01 ± 0.12 | 1.08 ± 0.066 | 1.01 ± 0.094 | 1.05 ± 0.12 | 1.01 ± 0.12 | 1.08 ± 0.05 | 1.19 ± 0.034
F8VV56 and related entries (UniProt P08962) | 0.872 ± 0.022 | 0.82 ± 0.085 | 0.943 ± 0.039 | 0.909 ± 0.085 | 0.929 ± 0.071 | 0.875 ± 0.089 | 0.861 ± 0.1 | 0.924 ± 0.063
E9PBE3 and related entries (UniProt Q8N3I7+E9PBE3) | 1.25 ± 0.36 | 1.15 ± 0.31 | 1.38 ± 0.44 | 1.08 ± 0.19 | 1.02 ± 0.33 | 1.09 ± 0.29 | 1.4 ± 0.44 | 1.14 ± 0.19
F8WE49 and related entries (UniProt Q9NS91) | 1.07 ± 0.021 | 1.07 ± 0.026 | 1.1 ± 0.052 | 1.12 ± 0.057 | 1.14 ± 0.044 | 1.14 ± 0.043 | 1.21 ± 0.17 | 1.18 ± 0.086
E7EQL8 and related entries (UniProt Q96RT7) | 0.971 ± 0.096 | 0.9629 ± 0.0018 | 1.09 ± 0.045 | 1.28 ± 0.086 | 1.23 ± 0.42 | 1.24 ± 0.17 | 1.21 ± 0.33 | 1.16 ± 0.37
E9PMC9 and related entries (UniProt Q7Z589) | 1.07 ± 0.1 | 1.11 ± 0.017 | 1.23 ± 0.083 | 1.34 ± 0.09 | 1.48 ± 0.14 | 1.49 ± 0.2 | 1.6 ± 0.3 | 1.68 ± 0.3
G0XQ39 and related entries (UniProt Q13586) | 0.932 ± 0.074 | 0.953 ± 0.07 | 0.948 ± 0.078 | 0.911 ± 0.073 | 0.911 ± 0.06 | 0.911 ± 0.07 | 0.961 ± 0.081 | 0.934 ± 0.082
F5GZ78 and related entries (UniProt P49023) | 0.948 ± 0.031 | 0.981 ± 0.067 | 0.932 ± 0.064 | 0.929 ± 0.058 | 0.905 ± 0.045 | 0.906 ± 0.038 | 0.924 ± 0.026 | 0.933 ± 0.076
F5GWN5 and related entries (UniProt O00750) | 1.1 ± 0.048 | 1.05 ± 0.033 | 1.06 ± 0.039 | 1.06 ± 0.075 | 1.03 ± 0.066 | 1.05 ± 0.11 | 1.05 ± 0.086 | 0.956 ± 0.071
E7EVC7 and related entries (UniProt Q676U5) | 1.05 ± 0.07 | 1.08 ± 0.087 | 1.01 ± 0.096 | 1.03 ± 0.038 | 1.02 ± 0.049 | 1.02 ± 0.059 | 0.99 ± 0.1 | 1.02 ± 0.081
E7EQI7 and related entries (UniProt Q12768) | 1.07 ± 0.063 | 1.03 ± 0.036 | 0.989 ± 0.037 | 1.02 ± 0.052 | 1.02 ± 0.059 | 1.03 ± 0.038 | 0.949 ± 0.066 | 0.941 ± 0.018
E7EPN9 and related entries (UniProt Q9Y520) | 1.01 ± 0.02 | 1.01 ± 0.054 | 1.1 ± 0.063 | 1.14 ± 0.073 | 1.24 ± 0.057 | 1.36 ± 0.075 | 1.53 ± 0.14 | 1.7 ± 0.2
E9PSH8 and related entries (UniProt P07766) | 0.955 ± 0.049 | 0.991 ± 0.076 | 0.986 ± 0.071 | 0.958 ± 0.085 | 0.962 ± 0.082 | 0.96 ± 0.082 | 0.978 ± 0.068 | 0.983 ± 0.11
F8VTV8 and related entries (UniProt P11802) | 0.977 ± 0.13 | 1.06 ± 0.048 | 0.999 ± 0.041 | 1.05 ± 0.071 | 1.06 ± 0.056 | 1.02 ± 0.049 | 0.995 ± 0.04 | 0.973 ± 0.015
F8WDV0 and related entries (UniProt Q9UI26) | 1.21 ± 0.17 | 1.05 ± 0.1 | 0.989 ± 0.12 | 1.11 ± 0.15 | 1.01 ± 0.15 | 1.02 ± 0.078 | 0.984 ± 0.077 | 0.975 ± 0.1
G3V4X1 and related entries (UniProt P62191) | 0.989 ± 0.011 | 1.04 ± 0.054 | 1.04 ± 0.063 | 1.06 ± 0.09 | 1.07 ± 0.11 | 1.09 ± 0.13 | 1.1 ± 0.15 | 1.04 ± 0.15
F8VV52 and related entries (UniProt Q9NZN8) | 1.04 ± 0.015 | 1.02 ± 0.045 | 1.16 ± 0.073 | 1.21 ± 0.047 | 1.31 ± 0.08 | 1.4 ± 0.14 | 1.43 ± 0.18 | 1.52 ± 0.22
F8VQE1 and related entries (UniProt Q9UHB6) | 0.977 ± 0.045 | 0.955 ± 0.12 | 1.16 ± 0.11 | 1.16 ± 0.1 | 1.35 ± 0.12 | 1.71 ± 0.067 | 1.95 ± 0.29 | 2.21 ± 0.23
F8W8G5 and related entries (UniProt P10242) | 1.02 ± 0.063 | 1.04 ± 0.077 | 1.08 ± 0.073 | 1.08 ± 0.086 | 1.12 ± 0.037 | 1.12 ± 0.1 | 1.15 ± 0.044 | 1.13 ± 0.051
E9PJN1 and related entries (UniProt O75676) | 1.18 ± 0.19 | 1.17 ± 0.15 | 1.2 ± 0.31 | 1.22 ± 0.26 | 1.2 ± 0.24 | 1.24 ± 0.27 | 1.18 ± 0.19 | 1.2 ± 0.16
F5GZ97 and related entries (UniProt Q9Y3C0) | 0.987 ± 0.074 | 0.942 ± 0.073 | 1.12 ± 0.1 | 1.08 ± 0.039 | 1.135 ± 0.0065 | 1.13 ± 0.019 | 1.05 ± 0.093 | 1.12 ± 0.066
E9PMG4 and related entries (UniProt Q9BUR4) | 1.19 ± 0.15 | 1.27 ± 0.15 | 1.19 ± 0.08 | 1.17 ± 0.14 | 1.14 ± 0.074 | 1.22 ± 0.097 | 1.2 ± 0.049 | 1.32 ± 0.064
F5GZS6 and related entries (UniProt P08195) | 0.911 ± 0.091 | 0.898 ± 0.085 | 0.895 ± 0.078 | 0.851 ± 0.075 | 0.867 ± 0.081 | 0.865 ± 0.073 | 0.846 ± 0.08 | 0.855 ± 0.08

Already shown: entries from further up.
Target | NP40-soluble protein abundance (concentration: 0.1mM) | NP40-soluble protein abundance (concentration: 0.5mM) | NP40-soluble protein abundance (concentration: 1mM) | NP40-soluble protein abundance (concentration: 2mM) | NP40-soluble protein abundance (concentration: 4mM) | NP40-soluble protein abundance (concentration: 6mM) | NP40-soluble protein abundance (concentration: 8mM) | NP40-soluble protein abundance (concentration: 10mM)
F5GZ78 and related entries (UniProt P49023) | 0.948 ± 0.031 | 0.981 ± 0.067 | 0.932 ± 0.064 | 0.929 ± 0.058 | 0.905 ± 0.045 | 0.906 ± 0.038 | 0.924 ± 0.026 | 0.933 ± 0.076
F5GWN5 and related entries (UniProt O00750) | 1.1 ± 0.048 | 1.05 ± 0.033 | 1.06 ± 0.039 | 1.06 ± 0.075 | 1.03 ± 0.066 | 1.05 ± 0.11 | 1.05 ± 0.086 | 0.956 ± 0.071
E7EVC7 and related entries (UniProt Q676U5) | 1.05 ± 0.07 | 1.08 ± 0.087 | 1.01 ± 0.096 | 1.03 ± 0.038 | 1.02 ± 0.049 | 1.02 ± 0.059 | 0.99 ± 0.1 | 1.02 ± 0.081
E7EQI7 and related entries (UniProt Q12768) | 1.07 ± 0.063 | 1.03 ± 0.036 | 0.989 ± 0.037 | 1.02 ± 0.052 | 1.02 ± 0.059 | 1.03 ± 0.038 | 0.949 ± 0.066 | 0.941 ± 0.018
E7EPN9 and related entries (UniProt Q9Y520) | 1.01 ± 0.02 | 1.01 ± 0.054 | 1.1 ± 0.063 | 1.14 ± 0.073 | 1.24 ± 0.057 | 1.36 ± 0.075 | 1.53 ± 0.14 | 1.7 ± 0.2
E9PSH8 and related entries (UniProt P07766) | 0.955 ± 0.049 | 0.991 ± 0.076 | 0.986 ± 0.071 | 0.958 ± 0.085 | 0.962 ± 0.082 | 0.96 ± 0.082 | 0.978 ± 0.068 | 0.983 ± 0.11
F8VTV8 and related entries (UniProt P11802) | 0.977 ± 0.13 | 1.06 ± 0.048 | 0.999 ± 0.041 | 1.05 ± 0.071 | 1.06 ± 0.056 | 1.02 ± 0.049 | 0.995 ± 0.04 | 0.973 ± 0.015
F8WDV0 and related entries (UniProt Q9UI26) | 1.21 ± 0.17 | 1.05 ± 0.1 | 0.989 ± 0.12 | 1.11 ± 0.15 | 1.01 ± 0.15 | 1.02 ± 0.078 | 0.984 ± 0.077 | 0.975 ± 0.1
